# Reference: publication PMC11039647
# By UniProt entry, the sequences of proteins in these tests, tags left out. Where a name states a change or a piece, a line headed by the entry shows the natural chain unless it says otherwise.
# UniProt Q04206: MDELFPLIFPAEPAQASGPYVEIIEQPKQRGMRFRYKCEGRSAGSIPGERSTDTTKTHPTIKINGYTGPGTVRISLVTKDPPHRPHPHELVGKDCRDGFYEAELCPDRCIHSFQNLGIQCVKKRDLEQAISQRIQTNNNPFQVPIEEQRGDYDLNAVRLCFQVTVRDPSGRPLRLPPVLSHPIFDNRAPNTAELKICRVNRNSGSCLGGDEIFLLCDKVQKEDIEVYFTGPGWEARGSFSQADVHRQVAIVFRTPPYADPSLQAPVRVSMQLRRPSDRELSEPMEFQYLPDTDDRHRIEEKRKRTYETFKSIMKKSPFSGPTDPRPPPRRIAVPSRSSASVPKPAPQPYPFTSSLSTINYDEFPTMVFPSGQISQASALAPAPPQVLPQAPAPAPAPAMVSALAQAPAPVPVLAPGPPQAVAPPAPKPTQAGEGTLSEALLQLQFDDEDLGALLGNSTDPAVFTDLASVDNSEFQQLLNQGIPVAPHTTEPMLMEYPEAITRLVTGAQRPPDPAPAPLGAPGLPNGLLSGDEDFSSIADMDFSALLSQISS
# UniProt P43694: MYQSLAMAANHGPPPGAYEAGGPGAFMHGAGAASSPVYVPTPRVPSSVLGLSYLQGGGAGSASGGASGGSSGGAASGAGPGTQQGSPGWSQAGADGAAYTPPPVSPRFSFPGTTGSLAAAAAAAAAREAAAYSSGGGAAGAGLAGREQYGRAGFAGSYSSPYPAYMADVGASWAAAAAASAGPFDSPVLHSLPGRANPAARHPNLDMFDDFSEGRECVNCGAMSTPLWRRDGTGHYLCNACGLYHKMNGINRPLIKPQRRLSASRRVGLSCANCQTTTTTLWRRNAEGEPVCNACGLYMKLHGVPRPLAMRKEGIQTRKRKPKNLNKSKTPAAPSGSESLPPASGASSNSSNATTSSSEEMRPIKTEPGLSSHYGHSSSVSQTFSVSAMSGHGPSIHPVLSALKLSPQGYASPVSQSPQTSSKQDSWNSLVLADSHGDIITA
# UniProt Q13547: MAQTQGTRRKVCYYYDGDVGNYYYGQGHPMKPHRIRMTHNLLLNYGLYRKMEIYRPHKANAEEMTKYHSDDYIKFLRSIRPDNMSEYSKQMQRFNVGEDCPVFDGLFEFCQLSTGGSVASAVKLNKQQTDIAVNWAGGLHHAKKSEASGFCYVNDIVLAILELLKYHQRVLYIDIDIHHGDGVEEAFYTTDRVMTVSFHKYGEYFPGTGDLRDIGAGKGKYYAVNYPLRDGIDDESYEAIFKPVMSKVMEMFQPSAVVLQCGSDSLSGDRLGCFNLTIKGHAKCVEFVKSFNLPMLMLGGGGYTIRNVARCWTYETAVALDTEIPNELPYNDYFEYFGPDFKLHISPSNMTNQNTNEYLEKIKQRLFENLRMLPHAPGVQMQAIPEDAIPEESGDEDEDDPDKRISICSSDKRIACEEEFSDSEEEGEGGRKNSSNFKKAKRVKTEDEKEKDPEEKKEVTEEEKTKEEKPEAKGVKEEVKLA
# These are yes or no findings as the source states them, for the method shown. Binding seen in cells or lysates may run through a third protein. Some binding calls cover weakened binding; strength is not graded here.
# Assays:
# GST-p65 = GST-p65 (UniProt Q04206); assay: pull-down; GST fusion protein expressed in E. coli BL21 and purified on GST-tag purification resin as bait; partner in lysate of transfected HEK293T cells; western blot; only the target purified
# GFP-p65 = GFP-p65 (UniProt Q04206); assay: co-IP; HEK293T cells co-transfected with tagged plasmids, lysates in TNE lysis buffer; immunoprecipitation with anti-GFP or anti-Myc antibody or Flag-affinity magnetic beads, western blot for the tag of the partner; for HA-HDAC1 with GFP-p65: with or without co-transfected Flag-GATA4
# [1] = target: p65 (NF-κB transcription factor family), endogenous in T47D cells (human (endogenous in T47D)) (UniProt Q04206); assay: co-IP; endogenous proteins in T47D cell lysates (TNE lysis buffer: Tris-HCl pH 7.4 20 mM, NaCl 100 mM, EDTA 1 mM, NP-40 0.5%); immunoprecipitation with anti-p65 or anti-GATA4 antibody, Protein A/G magnetic beads, western blot
# Myc-GATA4 = Myc-GATA4 (UniProt P43694); assay: co-IP; HEK293T cells co-transfected with tagged plasmids, lysates in TNE lysis buffer; immunoprecipitation with anti-GFP or anti-Myc antibody or Flag-affinity magnetic beads, western blot for the tag of the partner; for HA-HDAC1 with GFP-p65: with or without co-transfected Flag-GATA4
# GST-GATA4 = GST-GATA4 (UniProt P43694); assay: pull-down; GST fusion protein expressed in E. coli BL21 and purified on GST-tag purification resin as bait; partner in lysate of transfected HEK293T cells; western blot; only the target purified
# Flag-GATA4 = Flag-GATA4 (UniProt P43694); assay: co-IP; HEK293T cells co-transfected with tagged plasmids, lysates in TNE lysis buffer; immunoprecipitation with anti-GFP or anti-Myc antibody or Flag-affinity magnetic beads, western blot for the tag of the partner; for HA-HDAC1 with GFP-p65: with or without co-transfected Flag-GATA4
# [2] = target: GATA-binding protein 4 (GATA4), endogenous in T47D cells (human (endogenous in T47D)) (UniProt P43694); assay: co-IP; endogenous proteins in T47D cell lysates (TNE lysis buffer: Tris-HCl pH 7.4 20 mM, NaCl 100 mM, EDTA 1 mM, NP-40 0.5%); immunoprecipitation with anti-p65 or anti-GATA4 antibody, Protein A/G magnetic beads, western blot
substance,measurement,setting,value
Flag-GATA4 (from UniProt P43694 1-442),binding,GST-p65,binds
same,binding,GFP-p65,binds
"GATA-binding protein 4 (GATA4), endogenous in T47D cells (from UniProt P43694 1-442)",binding,[1],binds
GFP-p65 (from UniProt Q04206 1-551),binding,Myc-GATA4,binds
HA-HDAC1 (from UniProt Q13547 1-482) (enzyme),binding,GST-GATA4,binds
same,binding,Flag-GATA4,binds
same,binding,GFP-p65,binds
"HDAC1, endogenous in T47D cells (from UniProt Q13547 1-482) (enzyme)",binding,[2],binds
